Data source: PubChem BioAssay AID1259308 (NCATS, 2017)

Aim: 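Genes whose loss raises luciferase production in HEK293 cells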 (primary screen)
Cells: human HEK293 embryonic kidney cells stably expressing firefly luciferase (HEK-CMV-Luc2-Hygro)
Reagents: single siRNA against human genes, 0.8 pmol siRNA per well
Timing: 72 h
Read-out: 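Reporter luminescence and viable-cell signal on separate replicate plates, given as percent of non-targeting control and median/MAD z-scores, plus per-cell luciferase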
Scale: total luciferase, z-score and total luciferase, % of control: higher = more reporter protein produced
Active means: 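Active when the median/MAD z-score for overall luciferase is greater than 3; a gene was taken forward for validation with new siRNAs if at least two of its three siRNAs passed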
Calls: active = raised luciferase; inactive = no rise
The deposit covers about 59,000 reagents; this is a random part of them. Of all reagents, about 1,510 (2.6%) are marked active. 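Calls use total luciferase alone and ignore viability, so some active siRNAs may act by altering cell number.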 Unmarked entries are inactive. The numbers tell different reagents against one gene apart. Not all columns of the deposit are shown.

For B3GAT2 #1, the entry reads total luciferase, z-score 1.81; total luciferase, % of control 118.
Silencing of B3GAT2 #2 came out at: total luciferase, z-score 2.69; total luciferase, % of control 135.
With knock-down of B3GAT2 #3, the record shows total luciferase, z-score 0.0928; total luciferase, % of control 83.7.
Against MCCC2 #1 the deposit lists total luciferase, z-score 0.51; total luciferase, % of control 92.
For MCCC2 #2, the entry reads total luciferase, z-score 0.831; total luciferase, % of control 98.4.
MCCC2 #3 showed total luciferase, z-score -0.234; total luciferase, % of control 77.2.
Depletion of RAP1GAP2 #1 came out at: total luciferase, z-score -0.0176; total luciferase, % of control 81.5.
Silencing of RAP1GAP2 #2 gave: total luciferase, z-score 2.19; total luciferase, % of control 125.
Against RAP1GAP2 #3, the values are total luciferase, z-score -0.163; total luciferase, % of control 78.6.
For FBXL22 #1, the entry reads total luciferase, z-score -1.78; total luciferase, % of control 46.5.
Against FBXL22 #2, the entry reads total luciferase, z-score -0.163; total luciferase, % of control 78.6.
FBXL22 #3 gave total luciferase, z-score -2.24; total luciferase, % of control 37.3.
